What is called IC50 is the concentration that gives 50% inhibition.

Drawing on patent US20170001990A1 (Genentech, Inc., priority 2014, published 2017), this text covers IC50 for 2 compounds.

Structures were worked out from names or drawings and are uncertain.

The assay has as its target Human recombinant carboxy-terminal his-tagged LDHA (amino acids 2-332) (Homo sapiens, UniProt P00338).

On to `CC(CC1CC1)Oc1cccc(C2(c3ccsc3)CC(=O)C(Sc3ccccc3Cl)C(=O)N2)n1` (centres unmarked), for which the IC50 amounted to 117 nM.
`O=C(NCC1CC1)c1cccc(C2(c3ccsc3)CC(=O)C(Sc3ccccc3Cl)C(=O)N2)n1` (centres unmarked) [Example 242, 6-[5-(2-chlorophenyl)sulfanyl-4,6-dioxo-2-(3-thienyl)-2-piperidyl]-N-(cyclopropylmethyl) pyridine-2-carboxamide]: the IC50 is 240 nM.
